## Primary screen of a compound library

The values are deposited in ChEMBL (CHEMBL3988442, “University of Dundee, Small-Polar-MMV Screening Library” (2021)).

Values are the deposited “Percent Effect”, in %.
The record does not define 0% and 100%; most values in the screen are far below 50% and negative numbers occur (in some assays of this library far below -100).
The compounds are a random part of those screened.
A dash means the value is not listed here; it may have been measured.

Mtb growth Cornell: 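Whole-cell assay for inhibitors of Mycobacterium tuberculosis growth, labelled Cornell in the record; the read-out is not stated. The concentration is filed as 10 mM, unlikely as a test dose, so the dose is not known. The record gives no direction; compounds strong in two other growth screens of this library score well above the rest, so higher reads as stronger inhibition. Of about 53,000 compounds tested this way, about 900 (1.7%) reached 50% or more in at least one test.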
Mtb heat-shock: 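Assay on Mycobacterium tuberculosis, filed only as a heat shock assay from Cornell; the read-out is not stated. The concentration is filed as 10 mM, unlikely as a test dose, so the dose is not known. The record gives no direction; compounds that gave an IC50 in retests scored well above the rest, so higher reads as stronger inhibition. About 69,000 compounds were tested under these conditions; 1.4% (about 930) showed 50% or more at least once.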

| compound | Mtb growth Cornell | Mtb heat-shock |
|---|---|---|
| `COCC1COCCC12CCN(C(=O)COc1ccccc1)CC2` (stereo unspecified) | 7.379 | -35.1 |
| `COc1ccc(C[C@H]2CN(C(=O)c3cscn3)CC[C@@H]2OC)cc1` | -70.09 | -23.35 |
| `Cc1cc(C)n(CC2CN(Cc3nc4ccccc4s3)CCO2)n1` (stereo unspecified) | -2.349 | -9.145 |
| `c1ccc(Cc2nc(CN3CCCC3Cn3cncn3)cs2)cc1` (stereo unspecified) | - | -0.774 |
| `CN(C)[C@H]1CCCCN(C(=O)COCc2nc3cc(F)ccc3[nH]2)C1` | -14.45 | 7.831 |
| `O=C(O)C(F)(F)F.[H][C@]12CN(CCOC)C[C@@]1(C(=O)O)CCCN(c1cc(OC)ncn1)C2` | 5.231 | -16.42 |
| `CC/C=C(/C)C(=O)N1CSCC1C(=O)NC1=NCCS1` (stereo unspecified) | - | -0.02515 |
| `CN(Cc1ccccc1)CC1(O)CCCN(Cc2ccc(F)cc2)C1=O` (stereo unspecified) | 33 | 9.704 |
| `[H][C@]12CC[C@]([H])(CN(Cc3cccnc3)C1)N(C(=O)Cc1ccccc1C)C2` | - | 10.69 |
| `Cc1nc(C)c(C(=O)Nc2ccc(-c3nnc(N(C)C)o3)cc2)o1` | 16.64 | 0.2127 |
| `CNC(=O)c1cc(-c2ccccc2OC)[nH]n1` | -4.699 | 15.51 |
| `CC(=O)N(C)[C@H]1CC[C@]2(CC1)CNC(=O)c1cc(C)ccc1O2` | -56.38 | 5.316 |
| `COCC1CC2(CCN(C(=O)c3cc(C)oc3C)CC2)CN1C(C)C.O=C(O)C(F)(F)F` (stereo unspecified) | 19.45 | 13.29 |
| `Cc1ccc(OCC(=O)NC2(C#N)CCSCC2)cc1C` | - | 11.63 |
| `Cc1nn(C)cc1C(=O)N1CCCN(C2Cc3ccccc3C2)CC1` | -9.229 | 20.85 |
| `O=C(COC1CCCCC1)Nc1ccn(CCc2ccncc2)n1` | - | -22.49 |
| `O=C(Cc1ccsc1)N1CCC2(CCCN(CC3CCOCC3)C2)C1` (stereo unspecified) | 2.769 | 4.168 |
| `CCCn1nc(C)c(CNC(=O)C2COc3c(cccc3OC)C2)c1C` (stereo unspecified) | 33.88 | 5.719 |
| `CCN1CC(C(=O)N2CC(Oc3ccccc3Cl)C2)CC1=O` (stereo unspecified) | -2.185 | -12.81 |
| `Cc1cccc(C(=O)N2CCCCC2c2nc(C)cs2)n1` (stereo unspecified) | - | -1.167 |
| `CN(C)c1cnn(Cc2nc3ccccc3n2C)c(=O)c1` | - | 14.51 |
| `COCCNc1nc(-c2ccc(S(=O)(=O)N3CCCCCC3)cc2)cs1` | 42.79 | 6.45 |
| `NCCO[C@H]1C[C@@H](O)C12CCN(C(=O)CCOc1ccccc1)CC2` | 8.49 | -8.318 |
| `CN1C(=O)CC(C(=O)O)C12CCN(Cc1cc(F)ccc1Cl)CC2` (stereo unspecified) | 10.55 | 16.09 |
| `O=C(NC1CCS(=O)(=O)C1)c1cc(Sc2ncccn2)ccn1` (stereo unspecified) | 9.903 | -3.045 |
| `CCCc1nc(CN(CC)C(=O)c2ccc(S(C)(=O)=O)cc2)no1` | 22.08 | 14.08 |
| `Cc1csc(CNC(=O)NC(C)c2ccc3c(c2)CCC(=O)N3)n1` (stereo unspecified) | - | -0.6305 |
| `O=C(c1cn(-c2cc(N3CCSCC3)ncn2)cn1)N1CCSCC1` | 5.129 | 4.154 |
| `COc1ccccc1-n1c(O)cc(C)c(C#N)c1=O` | - | -37.37 |
| `CN(C)C(=O)CSc1nnc(CCNC(=O)OC(C)(C)C)o1` | - | -31.97 |
| `Cc1nc(N(C)C)nc(NCCc2cnccn2)c1C` | -15.72 | 5.28 |
| `CC(C)c1nn(C)c(N(C)C)c1CNCC(O)COc1ccccc1` (stereo unspecified) | 51.29 | 6.426 |
| `CCOC(=O)N1CCN(C(=O)C(C)n2ccnc2C(C)C)CC1` (stereo unspecified) | 33.83 | 12.79 |
| `CNS(=O)(=O)c1ccc(C(=O)N2CCCC2c2ccncc2)o1` (stereo unspecified) | -8.6 | -15.37 |
| `CCCn1nccc1-c1cc(C2CCN(S(C)(=O)=O)CC2)nc(C)n1` | 16.4 | 15.22 |
| `CCCc1cc(C(=O)N2CCC3(CCCN(CCO)C3=O)C2)cs1` (stereo unspecified) | -6.981 | -10.67 |
| `CN(C)Cc1cnc2n1CCN(C(=O)C1CC=CC1)CC2` | 12.47 | -6.157 |
| `[H][C@]12CN(Cc3ccco3)CCN1C[C@H](c1ccccc1)[C@H]2C(=O)NC` | -7.93 | -29.18 |
| `COC(=O)CNC(=O)c1c(-n2cnnn2)sc2c1CCCC2` | 26.6 | 12.47 |
| `[H][C@@]12C[C@H](C(=O)Nc3cccnc3)[C@@]([H])(CN(C)C1)O2` | -20.5 | -0.0821 |
| `CCSCCC(=O)NCc1cnn(-c2ccc(F)cc2F)c1` | - | -39.26 |
| `Cc1ccc(CN(C)C(=O)CN2CCCC(Cn3cncn3)C2)o1` (stereo unspecified) | - | 13.59 |
| `Cc1cnc2c(S(=O)(=O)NC3CCS(=O)(=O)C3)cccc2c1` (stereo unspecified) | -3.429 | 7.072 |
| `CNc1cc(C(=O)N2CCOC(C(=O)NC3CCCC3)C2)ccn1` (stereo unspecified) | 5.192 | 8.663 |
| `Cc1csc(CCCNC(=O)NC2CC(=O)N(C(C)(C)C)C2)n1` (stereo unspecified) | -45.48 | 17.77 |
| `Cc1nc(CN2CCN(C(=O)c3ccn(C)c(=O)c3)CC2)cs1` | - | -5.751 |
| `Cc1nsc(NC2CCOC3(CCCC3)C2)n1` (stereo unspecified) | 19 | -0.3328 |
| `Cc1ccc2nc(C)cc(NCCNS(=O)(=O)c3cn(C)nc3C)c2c1` | 7.018 | 0 |
| `O=C(c1ccc(NC2CC2)nc1)N1CCCC(n2cccn2)C1` (stereo unspecified) | - | -19.55 |
| `COCc1noc(-c2ccc(N3CCC[C@H]3CO)nc2)n1` | - | 7.957 |
| `CNC(=O)c1cccc(C2CNCCN2C(C)=O)c1` (stereo unspecified) | -9.713 | -14.3 |
| `CCOc1cc(C)nc(N2CCN(C(=O)c3cn[nH]c3CC)CC2)n1` | - | -13.39 |
| `Cc1nccc(N2CCCC2CCNS(C)(=O)=O)n1` (stereo unspecified) | -7.693 | -15.77 |
| `Cc1cc2c(cc1C)OC(C(=O)NCCNC(=O)C1CCCC1)C2` (stereo unspecified) | -4.056 | 6.548 |
| `Cc1c(-c2cc(-c3cnn(C)c3C)n(CC(=O)NC3CC3)n2)cnn1C` | -17.78 | 0.3024 |
| `O=c1c2cccnc2cnn1CC(O)c1cccc(C(F)(F)F)c1` (stereo unspecified) | - | -29.35 |

The first 4 entries again:

compound	Mtb growth Cornell	Mtb heat-shock
COCC1COCCC12CCN(C(=O)COc1ccccc1)CC2 (stereo unspecified)	7.379	-35.1
COc1ccc(C[C@H]2CN(C(=O)c3cscn3)CC[C@@H]2OC)cc1	-70.09	-23.35
Cc1cc(C)n(CC2CN(Cc3nc4ccccc4s3)CCO2)n1 (stereo unspecified)	-2.349	-9.145
c1ccc(Cc2nc(CN3CCCC3Cn3cncn3)cs2)cc1 (stereo unspecified)	-	-0.774